# Reference: the supplement of paper PMC8728848
# This is one part of the list.
# Columns and labels:
# Assay in all cases: glycan array binding signal (z-score within array); higher = stronger binding
# Details in all cases: glycan notation: IUPAC condensed, linker removed
# [1] = target: Fuc(a1-2)[Gal(a1-4)]Gal(b1-4)GlcNAc
# Summary of the method: (§1)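 The Consortium for Functional Glycomics database supplied 3228 glycan arrays, of which those lacking an available protein sequence were dropped. The binding signal, a within-array Z-score, was averaged across arrays of the same protein sequence and across linkers. Negative scores can be read as non-binding.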
# [2] = target: Fuc(a1-2)[GalNAc(a1-3)]Gal
# Summary of the method: as §1
# [3] = target: Fuc(a1-2)[GalNAc(a1-3)]Gal(b1-3)GalNAc(a1-3)[Fuc(a1-2)]Gal(b1-4)GlcNAc
# Summary of the method: as §1
# [4] = target: Fuc(a1-2)[GalNAc(a1-3)]Gal(b1-3)GlcNAc
# Summary of the method: as §1
# [5] = target: Fuc(a1-2)[GalNAc(a1-3)]Gal(b1-3)GlcNAc(b1-2)Man(a1-3)[Fuc(a1-2)[GalNAc(a1-3)]Gal(b1-3)GlcNAc(b1-2)Man(a1-6)]Man(b1-4)GlcNAc(b1-4)GlcNAc
# Summary of the method: as §1
# [6] = target: Fuc(a1-2)[GalNAc(a1-3)]Gal(b1-4)Glc
# Summary of the method: as §1
# [7] = target: Fuc(a1-2)[GalNAc(a1-3)]Gal(b1-4)GlcNAc
# Summary of the method: as §1
# [8] = target: Fuc(a1-2)[GalNAc(a1-3)]Gal(b1-4)GlcNAc(b1-2)Man(a1-3)[Fuc(a1-2)[GalNAc(a1-3)]Gal(b1-4)GlcNAc(b1-2)Man(a1-6)]Man(b1-4)GlcNAc(b1-4)GlcNAc
# Summary of the method: as §1
# [9] = target: Fuc(a1-2)[GalNAc(a1-3)]Gal(b1-4)GlcNAc(b1-3)Gal(b1-4)GlcNAc
# Summary of the method: as §1
# [10] = target: Fuc(a1-2)[GalNAc(a1-3)]Gal(b1-4)GlcNAc(b1-3)Gal(b1-4)GlcNAc(b1-3)Gal(b1-4)GlcNAc
# Summary of the method: as §1
# [11] = target: Fuc(a1-2)[GalNAc(a1-3)]Gal(b1-4)[Fuc(a1-3)]GlcNAc
# Summary of the method: as §1
# [12] = target: Fuc(a1-2)[GalNAc(a1-4)]Gal(b1-4)GlcNAc
# Summary of the method: as §1
# [13] = target: Fuc(a1-2)[GalNAc(b1-3)]Gal
# Summary of the method: as §1
# [14] = target: Fuc(a1-3)GlcNAc
# Summary of the method: as §1
# [15] = target: Fuc(a1-3)[Gal(b1-4)]Glc6S
# Summary of the method: as §1
# [16] = target: Fuc(a1-3)[Gal(b1-4)]GlcNAc
# Summary of the method: as §1
# [17] = target: Fuc(a1-3)[Gal(b1-4)]GlcNAc(b1-2)Man(a1-3)[Fuc(a1-3)[Gal(b1-4)]GlcNAc(b1-2)Man(a1-6)]Man(b1-4)GlcNAc(b1-4)GlcNAc
# Summary of the method: as §1
# [18] = target: Fuc(a1-3)[Gal(b1-4)]GlcNAc(b1-3)Gal(b1-3)[Fuc(a1-4)]GlcNAc
# Summary of the method: as §1
# [19] = target: Fuc(a1-3)[Gal(b1-4)]GlcNAc(b1-3)GalNAc
# Summary of the method: as §1
# [20] = target: Fuc(a1-3)[Gal(b1-4)]GlcNAc(b1-4)Gal(b1-4)[Fuc(a1-3)]GlcNAc
# Summary of the method: as §1
# [21] = target: Fuc(a1-3)[Gal(b1-4)]GlcNAc(b1-4)Gal(b1-4)[Fuc(a1-3)]GlcNAc(b1-4)Gal(b1-4)[Fuc(a1-3)]GlcNAc
# Summary of the method: as §1
# [22] = target: Fuc(a1-3)[Gal(b1-4)]GlcNAc(b1-6)[Gal(b1-3)GlcNAc(b1-3)]Gal(b1-4)Glc
# Summary of the method: as §1
# [23] = target: Fuc(a1-3)[Gal(b1-4)]GlcNAc6S
# Summary of the method: as §1
# [24] = target: Fuc(a1-3)[Gal3S(b1-4)]GlcNAc
# Summary of the method: as §1
# [25] = target: Fuc(a1-3)[Gal3S(b1-4)]GlcNAc6S
# Summary of the method: as §1
# [26] = target: Fuc(a1-3)[GalNAc(b1-4)]GlcNAc
# Summary of the method: as §1
# [27] = target: Fuc(a1-4)GlcNAc
# Summary of the method: as §1
# [28] = target: Fuc(b1-3)GlcNAc
# Summary of the method: as §1
# [29] = target: Gal(a1-2)Gal
# Summary of the method: as §1
# [30] = target: Gal(a1-3)Gal
# Summary of the method: as §1
# [31] = target: Gal(a1-3)Gal(b1-3)GlcNAc
# Summary of the method: as §1
# [32] = target: Gal(a1-3)Gal(b1-3)GlcNAc(b1-2)Man(a1-3)[Gal(a1-3)Gal(b1-3)GlcNAc(b1-2)Man(a1-6)]Man(b1-4)GlcNAc(b1-4)GlcNAc
# Summary of the method: as §1
# [33] = target: Gal(a1-3)Gal(b1-3)[Fuc(a1-4)]GlcNAc(b1-2)Man(a1-3)[Gal(a1-3)Gal(b1-3)[Fuc(a1-4)]GlcNAc(b1-2)Man(a1-6)]Man(b1-4)GlcNAc(b1-4)GlcNAc
# Summary of the method: as §1
# [34] = target: Gal(a1-3)Gal(b1-4)Glc
# Summary of the method: as §1
# [35] = target: Gal(a1-3)Gal(b1-4)GlcNAc
# Summary of the method: as §1
# [36] = target: Gal(a1-3)Gal(b1-4)GlcNAc(b1-3)GalNAc
# Summary of the method: as §1
# [37] = target: Gal(a1-3)Gal(b1-4)[Fuc(a1-3)]GlcNAc
# Summary of the method: as §1
# [38] = target: Gal(a1-3)Gal(b1-4)[Fuc(a1-3)]GlcNAc(b1-2)Man(a1-3)[Gal(a1-3)Gal(b1-4)[Fuc(a1-3)]GlcNAc(b1-2)Man(a1-6)]Man(b1-4)GlcNAc(b1-4)GlcNAc
# Summary of the method: as §1
binder,measurement,setting,value
"PEB3 (Campylobacter jejuni), Q0PBL7 (protein) MKKIITLFGACALAFSMANADVNLYGPGGPHTALKDIANKYSEKTGVKVNVNFGPQATWFEKAKKDADILFGASDQSALAIASDFGKDFNVSKIKPLYFREAIILTQKGNPLKIKGLKDLANKKVRIVVPEGAGKSNTSGTGVWEDMIGRTQDIKTIQNFRNNIVAFVPNSGSARKLFAQDQADAWITWIDWSKSNPDIGTAVAIEKDLVVYRTFNVIAKEGASKETQDFIAYLSSKEAKEIFKKYGWRE",glycan array binding signal (z-score),[1],-0.346
same,glycan array binding signal (z-score),[2],0.501
same,glycan array binding signal (z-score),[3],-0.664
same,glycan array binding signal (z-score),[4],1
same,glycan array binding signal (z-score),[5],-0.335
same,glycan array binding signal (z-score),[6],-0.709
same,glycan array binding signal (z-score),[7],-0.483
same,glycan array binding signal (z-score),[8],-0.164
same,glycan array binding signal (z-score),[9],-0.54
same,glycan array binding signal (z-score),[10],0.771
same,glycan array binding signal (z-score),[11],1.79
same,glycan array binding signal (z-score),[12],-0.571
same,glycan array binding signal (z-score),[13],-0.27
same,glycan array binding signal (z-score),[14],-0.459
same,glycan array binding signal (z-score),[15],0.99
same,glycan array binding signal (z-score),[16],0.494
same,glycan array binding signal (z-score),[17],-0.554
same,glycan array binding signal (z-score),[18],0.359
same,glycan array binding signal (z-score),[19],-0.964
same,glycan array binding signal (z-score),[20],1.05
same,glycan array binding signal (z-score),[21],0.144
same,glycan array binding signal (z-score),[22],-1.02
same,glycan array binding signal (z-score),[23],0.763
same,glycan array binding signal (z-score),[24],0.309
same,glycan array binding signal (z-score),[25],0.696
same,glycan array binding signal (z-score),[26],-0.565
same,glycan array binding signal (z-score),[27],-0.82
same,glycan array binding signal (z-score),[28],-0.162
same,glycan array binding signal (z-score),[29],0.019
same,glycan array binding signal (z-score),[30],-0.384
same,glycan array binding signal (z-score),[31],0.021
same,glycan array binding signal (z-score),[32],0.243
same,glycan array binding signal (z-score),[33],4.25
same,glycan array binding signal (z-score),[34],1.33
same,glycan array binding signal (z-score),[35],-0.495
same,glycan array binding signal (z-score),[36],0.06
same,glycan array binding signal (z-score),[37],0.154
same,glycan array binding signal (z-score),[38],0.06

# An excerpt of these results, tab-delimited.
binder	measurement	setting	value
PEB3 (Campylobacter jejuni), Q0PBL7 (protein) MKKIITLFGACALAFSMANADVNLYGPGGPHTALKDIANKYSEKTGVKVNVNFGPQATWFEKAKKDADILFGASDQSALAIASDFGKDFNVSKIKPLYFREAIILTQKGNPLKIKGLKDLANKKVRIVVPEGAGKSNTSGTGVWEDMIGRTQDIKTIQNFRNNIVAFVPNSGSARKLFAQDQADAWITWIDWSKSNPDIGTAVAIEKDLVVYRTFNVIAKEGASKETQDFIAYLSSKEAKEIFKKYGWRE	glycan array binding signal (z-score)	[17]	-0.554
same	glycan array binding signal (z-score)	[35]	-0.495
